# Measured values as given in the supplement of paper PMC8728848.
# Some of the results follow.
# Key:
# Assay in all cases: glycan array binding signal (z-score within array); higher = stronger binding
# Conditions in all cases: glycan notation: IUPAC condensed, linker removed
# [1] = molecular target: Neu5Ac(a2-6)Gal(b1-3)GlcNAc(b1-3)[Gal(b1-4)GlcNAc(b1-6)]Gal(b1-4)Glc
# Summary of the method: (§1)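 Glycan array data came from 3228 arrays in the Consortium for Functional Glycomics database, and only arrays with an available protein sequence were kept. Glycan names were put into IUPAC-condensed notation, and columns mapping to the same glycan were averaged. The binding signal is a within-array Z-score, averaged across arrays of one protein sequence run at different concentrations or buffers and across linkers. A negative Z-score can be read as non-binding.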
# Neu5Ac(a2-6)Gal(b1-4)Glc = molecular target: Neu5Ac(a2-6)Gal(b1-4)Glc
# Summary of the method: as §1
# [2] = molecular target: Neu5Ac(a2-6)Gal(b1-4)GlcNAc
# Summary of the method: as §1
# [3] = molecular target: Neu5Ac(a2-6)Gal(b1-4)GlcNAc(b1-2)Man
# Summary of the method: as §1
# [4] = molecular target: Neu5Ac(a2-6)Gal(b1-4)GlcNAc(b1-2)Man(a1-3)Man(b1-4)GlcNAc(b1-4)GlcNAc
# Summary of the method: as §1
# [5] = molecular target: Neu5Ac(a2-6)Gal(b1-4)GlcNAc(b1-2)Man(a1-3)[Gal(b1-4)GlcNAc(b1-2)Man(a1-6)]Man(b1-4)GlcNAc(b1-4)GlcNAc
# Summary of the method: as §1
# [6] = molecular target: Neu5Ac(a2-6)Gal(b1-4)GlcNAc(b1-2)Man(a1-3)[GlcNAc(b1-2)Man(a1-6)]Man(b1-4)GlcNAc(b1-4)GlcNAc
# Summary of the method: as §1
# [7] = molecular target: Neu5Ac(a2-6)Gal(b1-4)GlcNAc(b1-2)Man(a1-3)[GlcNAc(b1-4)][Neu5Ac(a2-6)Gal(b1-4)GlcNAc(b1-2)Man(a1-6)]Man(b1-4)GlcNAc(b1-4)GlcNAc
# Summary of the method: as §1
# [8] = molecular target: Neu5Ac(a2-6)Gal(b1-4)GlcNAc(b1-2)Man(a1-3)[Man(a1-6)]Man(b1-4)GlcNAc(b1-4)GlcNAc
# Summary of the method: as §1
# [9] = molecular target: Neu5Ac(a2-6)Gal(b1-4)GlcNAc(b1-2)Man(a1-3)[Neu5Ac(a2-3)Gal(b1-4)GlcNAc(b1-2)Man(a1-6)]Man(b1-4)GlcNAc(b1-4)GlcNAc
# Summary of the method: as §1
# [10] = molecular target: Neu5Ac(a2-6)Gal(b1-4)GlcNAc(b1-2)Man(a1-3)[Neu5Ac(a2-6)Gal(b1-4)GlcNAc(b1-2)Man(a1-6)]Man(b1-4)GlcNAc(b1-4)GlcNAc
# Summary of the method: as §1
# [11] = molecular target: Neu5Ac(a2-6)Gal(b1-4)GlcNAc(b1-2)Man(a1-3)[Neu5Ac(a2-6)Gal(b1-4)GlcNAc(b1-2)Man(a1-6)]Man(b1-4)GlcNAc(b1-4)[Fuc(a1-6)]GlcNAc
# Summary of the method: as §1
# [12] = molecular target: Neu5Ac(a2-6)Gal(b1-4)GlcNAc(b1-2)Man(a1-6)Man(b1-4)GlcNAc(b1-4)GlcNAc
# Summary of the method: as §1
# [13] = molecular target: Neu5Ac(a2-6)Gal(b1-4)GlcNAc(b1-2)Man(a1-6)[Gal(b1-4)GlcNAc(b1-2)Man(a1-3)]Man(b1-4)GlcNAc(b1-4)GlcNAc
# Summary of the method: as §1
# [14] = molecular target: Neu5Ac(a2-6)Gal(b1-4)GlcNAc(b1-2)Man(a1-6)[GlcNAc(b1-2)Man(a1-3)]Man(b1-4)GlcNAc(b1-4)GlcNAc
# Summary of the method: as §1
# [15] = molecular target: Neu5Ac(a2-6)Gal(b1-4)GlcNAc(b1-2)Man(a1-6)[Man(a1-3)]Man(b1-4)GlcNAc(b1-4)GlcNAc
# Summary of the method: as §1
# [16] = molecular target: Neu5Ac(a2-6)Gal(b1-4)GlcNAc(b1-2)[Neu5Ac(a2-6)Gal(b1-4)GlcNAc(b1-4)]Man(a1-3)[GlcNAc(b1-4)][Neu5Ac(a2-6)Gal(b1-4)GlcNAc(b1-2)[Neu5Ac(a2-6)Gal(b1-4)GlcNAc(b1-6)]Man(a1-6)]Man(b1-4)GlcNAc(b1-4)GlcNAc
# Summary of the method: as §1
# [17] = molecular target: Neu5Ac(a2-6)Gal(b1-4)GlcNAc(b1-2)[Neu5Ac(a2-6)Gal(b1-4)GlcNAc(b1-4)]Man(a1-3)[GlcNAc(b1-4)][Neu5Ac(a2-6)Gal(b1-4)GlcNAc(b1-4)Man(a1-6)]Man(b1-4)GlcNAc(b1-4)GlcNAc
# Summary of the method: as §1
# [18] = molecular target: Neu5Ac(a2-6)Gal(b1-4)GlcNAc(b1-2)[Neu5Ac(a2-6)Gal(b1-4)GlcNAc(b1-6)]Man(a1-6)[Neu5Ac(a2-6)Gal(b1-4)GlcNAc(b1-2)Man(a1-3)][GlcNAc(b1-4)]Man(b1-4)GlcNAc(b1-4)GlcNAc
# Summary of the method: as §1
# [19] = molecular target: Neu5Ac(a2-6)Gal(b1-4)GlcNAc(b1-3)Gal(b1-3)GlcNAc
# Summary of the method: as §1
# [20] = molecular target: Neu5Ac(a2-6)Gal(b1-4)GlcNAc(b1-3)Gal(b1-4)GlcNAc
# Summary of the method: as §1
# [21] = molecular target: Neu5Ac(a2-6)Gal(b1-4)GlcNAc(b1-3)Gal(b1-4)GlcNAc(b1-2)Man(a1-3)[Neu5Ac(a2-6)Gal(b1-4)GlcNAc(b1-3)Gal(b1-4)GlcNAc(b1-2)Man(a1-6)]GalNAc
# Summary of the method: as §1
# [22] = molecular target: Neu5Ac(a2-6)Gal(b1-4)GlcNAc(b1-3)Gal(b1-4)GlcNAc(b1-3)Gal(b1-4)GlcNAc
# Summary of the method: as §1
# [23] = molecular target: Neu5Ac(a2-6)Gal(b1-4)GlcNAc(b1-3)Gal(b1-4)GlcNAc(b1-3)Gal(b1-4)GlcNAc(b1-2)Man(a1-3)[Neu5Ac(a2-6)Gal(b1-4)GlcNAc(b1-3)Gal(b1-4)GlcNAc(b1-3)Gal(b1-4)GlcNAc(b1-2)Man(a1-6)]GalNAc
# Summary of the method: as §1
# [24] = molecular target: Neu5Ac(a2-6)Gal(b1-4)GlcNAc(b1-3)Gal(b1-4)GlcNAc(b1-3)GalNAc
# Summary of the method: as §1
# [25] = molecular target: Neu5Ac(a2-6)Gal(b1-4)GlcNAc(b1-3)Gal(b1-4)GlcNAc(b1-3)[Neu5Ac(a2-6)Gal(b1-4)GlcNAc(b1-3)Gal(b1-4)GlcNAc(b1-6)]GalNAc
# Summary of the method: as §1
# [26] = molecular target: Neu5Ac(a2-6)Gal(b1-4)GlcNAc(b1-3)Gal(b1-4)GlcNAc(b1-6)[Gal(b1-3)]GalNAc
# Summary of the method: as §1
# [27] = molecular target: Neu5Ac(a2-6)Gal(b1-4)GlcNAc(b1-3)Gal(b1-4)[Fuc(a1-3)]GlcNAc(b1-3)Gal(b1-4)[Fuc(a1-3)]GlcNAc
# Summary of the method: as §1
# [28] = molecular target: Neu5Ac(a2-6)Gal(b1-4)GlcNAc(b1-3)GalNAc
# Summary of the method: as §1
# [29] = molecular target: Neu5Ac(a2-6)Gal(b1-4)GlcNAc(b1-3)[Neu5Ac(a2-6)Gal(b1-4)GlcNAc(b1-6)]GalNAc
# Summary of the method: as §1
# [30] = molecular target: Neu5Ac(a2-6)Gal(b1-4)GlcNAc(b1-6)GalNAc
# Summary of the method: as §1
# [31] = molecular target: Neu5Ac(a2-6)Gal(b1-4)GlcNAc(b1-6)[Gal(b1-3)GlcNAc(b1-3)]Gal(b1-4)Glc
# Summary of the method: as §1
# [32] = molecular target: Neu5Ac(a2-6)Gal(b1-4)GlcNAc(b1-6)[Gal(b1-3)]GalNAc
# Summary of the method: as §1
# [33] = molecular target: Neu5Ac(a2-6)Gal(b1-4)GlcNAc6S
# Summary of the method: as §1
# Neu5Ac(a2-6)GalNAc = molecular target: Neu5Ac(a2-6)GalNAc
# Summary of the method: as §1
# [34] = molecular target: Neu5Ac(a2-6)GalNAc(b1-4)GlcNAc
# Summary of the method: as §1
# [35] = molecular target: Neu5Ac(a2-6)GalNAc(b1-4)GlcNAc6S
# Summary of the method: as §1
# [36] = molecular target: Neu5Ac(a2-6)GlcNAc(b1-4)GlcNAc
# Summary of the method: as §1
binder,measurement,setting,value
PX14375A-pdi-503-28-503 (Parabacteroides distasonis) (protein) PLGSPEAGDISEERQAFLRLTAVYSVMKDFRYTWSMQCFGDVLSNDATYSGSSNDAQTFTLLENYQYQADHTEILNKYRYSYQCINKANLFIRDMEMADDALFSKYDKEQMIGEAKFIRAYTYFELVKTFGGVPCYTGVLDLDHERLGRASVEEIYSVIEQDLNDAVSVLPKKSEVANYESSYAGRITKGAAIAMQTRIYLYEKKYDEVKKAFEKFQNECGGEYSLVAPEDYTWQFSLDGEHCSSSILEVNMYNSSTQSSYNVNNGNRHVLMSMPRNMTIGFGCAQPTQALADAYDAEGDVIRKKTTLLSTEEAIEIETAAKGDVAPVTDDRTGWYNRKLYLAPGQREENRGNNQPTNLRLIRLAEVYLNYAEACYFSGDIANAQKYLNEVRSHVNLAPKNHTGSQLFEDIMNERHLEFGMEGFRFFDVVRVGWGEKVFNGTKKAEFGAKTPFSAGAEVLPIPQTEIDISDGLITN,glycan array binding signal (z-score),[1],-0.115
same,glycan array binding signal (z-score),Neu5Ac(a2-6)Gal(b1-4)Glc,-0.412
same,glycan array binding signal (z-score),[2],0.653
same,glycan array binding signal (z-score),[3],-0.429
same,glycan array binding signal (z-score),[4],-0.039
same,glycan array binding signal (z-score),[5],-0.384
same,glycan array binding signal (z-score),[6],0.971
same,glycan array binding signal (z-score),[7],-0.521
same,glycan array binding signal (z-score),[8],-0.114
same,glycan array binding signal (z-score),[9],-0.158
same,glycan array binding signal (z-score),[10],0.013
same,glycan array binding signal (z-score),[11],0.073
same,glycan array binding signal (z-score),[12],-0.882
same,glycan array binding signal (z-score),[13],-0.819
same,glycan array binding signal (z-score),[14],-0.508
same,glycan array binding signal (z-score),[15],-0.062
same,glycan array binding signal (z-score),[16],-0.373
same,glycan array binding signal (z-score),[17],0.454
same,glycan array binding signal (z-score),[18],0.656
same,glycan array binding signal (z-score),[19],-0.469
same,glycan array binding signal (z-score),[20],-0.106
same,glycan array binding signal (z-score),[21],0.642
same,glycan array binding signal (z-score),[22],0.319
same,glycan array binding signal (z-score),[23],1.64
same,glycan array binding signal (z-score),[24],0.439
same,glycan array binding signal (z-score),[25],1.16
same,glycan array binding signal (z-score),[26],-0.493
same,glycan array binding signal (z-score),[27],-0.365
same,glycan array binding signal (z-score),[28],-0.633
same,glycan array binding signal (z-score),[29],0.786
same,glycan array binding signal (z-score),[30],-1.3
same,glycan array binding signal (z-score),[31],-0.029
same,glycan array binding signal (z-score),[32],-0.287
same,glycan array binding signal (z-score),[33],-0.043
same,glycan array binding signal (z-score),Neu5Ac(a2-6)GalNAc,-0.976
same,glycan array binding signal (z-score),[34],0.545
same,glycan array binding signal (z-score),[35],0.576
same,glycan array binding signal (z-score),[36],-0.047

# 2 entries from above, with tabs.
binder	measurement	setting	value
PX14375A-pdi-503-28-503 (Parabacteroides distasonis) (protein) PLGSPEAGDISEERQAFLRLTAVYSVMKDFRYTWSMQCFGDVLSNDATYSGSSNDAQTFTLLENYQYQADHTEILNKYRYSYQCINKANLFIRDMEMADDALFSKYDKEQMIGEAKFIRAYTYFELVKTFGGVPCYTGVLDLDHERLGRASVEEIYSVIEQDLNDAVSVLPKKSEVANYESSYAGRITKGAAIAMQTRIYLYEKKYDEVKKAFEKFQNECGGEYSLVAPEDYTWQFSLDGEHCSSSILEVNMYNSSTQSSYNVNNGNRHVLMSMPRNMTIGFGCAQPTQALADAYDAEGDVIRKKTTLLSTEEAIEIETAAKGDVAPVTDDRTGWYNRKLYLAPGQREENRGNNQPTNLRLIRLAEVYLNYAEACYFSGDIANAQKYLNEVRSHVNLAPKNHTGSQLFEDIMNERHLEFGMEGFRFFDVVRVGWGEKVFNGTKKAEFGAKTPFSAGAEVLPIPQTEIDISDGLITN	glycan array binding signal (z-score)	[8]	-0.114
same	glycan array binding signal (z-score)	[9]	-0.158
